In assay [1] the target is p7A^Ct (MNSV p7A lacking residues 45 to 65), Gal4-BD fusion (Melon necrotic spot virus) (UniProt Q8V993). Description: two-hybrid; GAL4 […] system, yeast AH109; DGBp1 or p7A mutants as Gal4-BD fusions (pGBKT7) against pAC-p7A or pAC-p7 (pACT2); growth on SD + DO-A-H-L-W + X-alpha Gal (HIS3, ADE2, MEL1 reporters).
In assay [2] the target is T1, MNSV p7A (DGBp1 of Melon necrotic spot virus), Gal4 fusion (Melon necrotic spot virus) (UniProt Q8V993).
T1 sequence: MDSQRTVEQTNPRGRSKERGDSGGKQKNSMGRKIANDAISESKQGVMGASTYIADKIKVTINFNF
The assay is described as above.

Assay [3] concerns the target p7A^Nt (MNSV p7A lacking residues 1 to 22), Gal4-BD fusion (Melon necrotic spot virus) (UniProt Q8V993). The assay is described as above.
The target in assay [4] is T1, MNSV p7A (DGBp1 of Melon necrotic spot virus), Gal4 fusion (Melon necrotic spot virus). Description: two-hybrid; GAL4 […] system, yeast AH109; DGBp1s and their fnf mutants as Gal4-BD fusions against full-length Arabidopsis ORFs as Gal4-AD fusions; controls pBD-p53 and pAC-ILR3; growth on SD + DO-A-H-L-W + X-alpha Gal.

Results are given in words; binding and its absence hold for the method and conditions named. Some binding calls cover weakened binding; strength is not graded here. Where a sequence is shown, tags or fusion partners need not be part of it.

B1: MNSV p7A (DGBp1 of Melon necrotic spot virus), Gal4 fusion (protein, UniProt Q8V993 1-65)
chain: T1 sequence
For the molecule B1, the binding result is given as “no binding” in assay [1], “binds” in assay [2] and “binds” in assay [3].

B2: RPP3B, Gal4 fusion (protein, UniProt Q9LVC9 1-120)
chain: MGVFSFVCKSKGGEWTAKQHEGDLEASASSTYDLQRKLVQTALSADSSGGVQSSFSLVSPTSAVFVVVIGGGGGGGFAAGGGAAAGGGGGGEAAAATKEEEKKKEESEEEEGDFGFDLFG
For B2, the binding result in assay [4] is “no binding”.

The values above are taken from PMC7075923.
